{"source": "patent US20230159449A1", "about": "“LIPID FORMULATIONS CONTAINING NUCLEIC ACIDS AND METHODS OF TREATMENT FOR CYSTIC FIBROSIS” (Arcturus Therapeutics, Inc., priority 2021, published 2023)", "tested_on": "FRT cells", "assay": "Transepithelial conductance (Gt) in Air-Liquid Interface culture of transfected FRT cells", "format": "cell-based, rat", "conditions": "FRT cells transfected with 2099.1 or 1835.1; sequential Forskolin, VX770, Inh-172", "protocol": "Further studies were conducted to assess the activity of hCFTR proteins expressed by selected mRNA constructs and whether these can properly open and close to allow proper ion transport. In these studies, an Air-Liquid Interface (ALI) cell culture model of FRT cells was used to transfect an unformulated subset of codon-optimized hCFTR mRNAs at different doses ranging from 0.5 μg-2 μg of mRNA (the 2 μg dose is not shown) into the FRT cells. ALI is a method of cell culture by which polarized cells are generated with their basal surfaces in contact with media, and the top of the cellular layer is exposed to the air. This model helps to mimic the cellular structure of in vivo airways. At 24 hours post-transfection, transepithelial conductance (Gt) of the cells over time was measured as an indicator of CFTR activity. Initially, Gt was measured with the transfected or control cells unperturbed. Then, a sequential process of CFTR activation (channel opening), enhancement (gating promotion) and closing of the CFTR channels was performed. The hCFTR constructs used in this study were 1835.1 (SEQ ID NO: 53), 2093.1 (SEQ ID NO: 66), 2095.1 (SEQ ID NO: 68), 2096.1 (SEQ ID NO: 69), and 2099.1 (SEQ ID NO: 72). In addition, controls were performed using a reference sequence of construct 764.1 (SEQ ID NO: 47) and untransfected cells. […]", "note": "At least one structure is not confirmed: it was looked up by name or label, or the drawing left a doubt."}
{"smiles": "C=C[C@@]1(C)CC(=O)[C@]2(O)[C@@]3(C)[C@@H](O)CCC(C)(C)[C@@H]3[C@H](O)[C@H](OC(C)=O)[C@@]2(C)O1", "note": "[Forskolin, reference compound]", "values": [{"measurement": "change in Gt on introduction of the agent", "value": "initial increase in Gt"}]}
